The other results are listed elsewhere or left out. Further columns of the screen follow, without active or inactive calls. The list favours compounds with an active or inconclusive main result. The note in brackets gives the kind of curve behind each potency; many fits are weak.
Test: qHTS Assay for Lipid Storage Modulators in Drosophila S3 Cells;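 as to cell number change: cells counted by Cell Tracker Red CMTPX staining in the red channel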
Conditions: BODIPY lipid droplet fluorescence, 18-24 h; for cell number change: measured here: cell count max response, cells fed with added oleic acid
Summary of the method: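 Drosophila S3 cells got compounds at several concentrations plus oleic acid (400 uM solution). Laser-scanning cytometry with 488 nm excitation read lipid droplets at 500-530 nm and cells at 575-640 nm. Percent activity was relative to 20 uM Triacsin C.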

[1] = measured here: lipid fluorescence (Fed channel) AC50, cells fed with added oleic acid
[2] = measured here: cell number channel AC50, cells fed with added oleic acid

With COc1cc(Br)cc2cc(C(=O)N3CCCCC3C)c(=O)oc12 (stereo not given) the cell number change was -1.72% and the AC50 [1] was 3.26 µM [rising, single point].
For CC(=O)c1ccc(S(=O)(=O)N2CCN(CC(=O)Nc3ccccc3C(=O)NC3CC3)CC2)cc1, the AC50 [1] was 5.8 µM [falling, full curve].
With COc1ccccc1CNC(=O)C1=CCN(S(=O)(=O)c2ccc(C)cc2)CC1 the cell number change was 12.8% and the AC50 [1] was 2.91 µM [rising, full curve].
For CC(C)(C)c1ccc(C(=O)Nc2nnc(Cc3c[nH]c4ccccc34)s2)cc1, the cell number change was 30.4% and the AC50 [2] was 4.61 µM [rising, full curve, poor fit].
For O=C(Nc1ccccc1)N(CCCN1CCOCC1)Cc1cccs1, the cell number change was 30.6%, the AC50 [2] was 6.51 µM [rising, single point] and the AC50 [1] was 6.51 µM [rising, single point].
Molecule CCNC(=S)Nc1cccc(S(=O)(=O)Nc2ccccc2OC)c1 has a cell number change of -5.44%.
With COc1ccccc1-c1nn2c(C3COc4ccccc4O3)nnc2s1 (stereo not given) the cell number change was -16.3% and the AC50 [1] was 1.84 µM [rising, full curve, poor fit].
In the case of COc1ccccc1C(=O)N(Cc1sccc1C)C1CCS(=O)(=O)C1 (stereo not given), the cell number change is reported as -13.1% and the AC50 [1] is reported as 4.11 µM [rising, full curve, poor fit].
In the case of COc1ccc([C@@H]2[C@@H]3C(=O)N(C(C)(C)C)C(=O)[C@@H]3[C@]3(Cc4ccccc4)C(=O)N(c4cccc(Br)c4)C(=O)N23)cc1, the cell number change is reported as -17.4% and the AC50 [1] is reported as 18.4 µM [falling, single point].
With COc1cc(-c2cc(OC)c3c(C)oc(C)c3c(=O)c2)ccc1O the cell number change was -12.4% and the AC50 [1] was 18.4 µM [rising, partial curve].
With CN(CC(=O)Nc1ccccc1C(F)(F)F)C(=O)c1cc(-c2cccs2)nn1-c1ccccc1 the cell number change was -33.9%, the AC50 [2] was 4.11 µM [falling, full curve, poor fit] and the AC50 [1] was 5.8 µM [falling, partial curve].
In the case of Cc1noc(C)c1C(=O)Nc1ccc(F)cc1, the cell number change is reported as 6.92%.
In the case of Cc1cc(NC(=O)COC(=O)c2ccccc2S(=O)(=O)N(C)c2ccccc2)no1, the cell number change is reported as -16.2% and the AC50 [1] is reported as 0.411 µM [rising, single point].
CCCCCc1ccc(-c2cn(CCCOCc3ccccc3)nn2)cc1 showed a cell number change of 5.18%.
For Cc1cc(C)c(C)c(S(=O)(=O)N2CCN(C(=O)C3CSC4(C)CCC(=O)N34)CC2)c1C (stereo not given), the cell number change was -25% and the AC50 [1] was 29.1 µM [rising, single point].
For COc1ccccc1N1C(=O)N(C(C)=O)C2C1Nc1ccccc1N2C (stereo not given), the cell number change was -19% and the AC50 [1] was 5.8 µM [rising, full curve, poor fit].
In the case of COc1cc2ncnc(NCc3ccc(Cl)cc3)c2cc1OC, the cell number change is reported as -11.6% and the AC50 [1] is reported as 5.8 µM [falling, full curve, poor fit].
In the case of Cc1sc2cc(-c3cccc([N+](=O)[O-])c3)c(-c3cccc([N+](=O)[O-])c3)c[n+]2c1C, the cell number change is reported as -42.8%, the AC50 [2] is reported as 6.51 µM [rising, partial curve, poor fit] and the AC50 [1] is reported as 6.51 µM [rising, partial curve, poor fit].
O=C(NC1CC1)c1cc2c(s1)-c1ccccc1OC2 showed a cell number change of -16.4%.
With CCN(CC)S(=O)(=O)c1cccc(C(=O)N[C@H](C(=O)Nc2nc3ccc(F)cc3s2)C(C)C)c1 the cell number change was 13.4% and the AC50 [1] was 8.2 µM [rising, partial curve].
With CCOC(=O)N1CCN(C(=O)c2ccc3ccccc3c2)CC1 the cell number change was 1.32%.
In the case of Cc1cccc(NC(=O)CCC2CCN(C(=O)C3CC=CCC3)CC2)c1 (stereo not given), the cell number change is reported as 3.48% and the AC50 [1] is reported as 0.00461 µM [rising, full curve, poor fit].
For CCN(Cc1ccccc1)C(=O)CCc1nc(-c2ccc(C)cc2)no1, the cell number change was -20.2% and the AC50 [1] was 0.731 µM [rising, partial curve, poor fit].
With Cc1nnc(SCC(=O)NC2CCCCCC2)n1C(C)C the cell number change was 11.9%, the AC50 [2] was 0.58 µM [rising, full curve, poor fit] and the AC50 [1] was 0.731 µM [rising, full curve, poor fit].
For Cc1occc1C(=O)N1CCCC(N2CCN(c3cccc(C(F)(F)F)c3)CC2)C1 (stereo not given), the cell number change was 1.74% and the AC50 [2] was 5.17 µM [rising, single point].
With CC1CCCC(C)N1CCNC(=O)CCc1nnc2n(Cc3ccccc3)c(=O)c3ccccc3n12 (stereo not given) the cell number change was -13.5% and the AC50 [1] was 13 µM [falling, partial curve, poor fit].
With Cc1ccc(S(=O)(=O)CCC(=O)NC2CCCCC2)cc1 the cell number change was 12.9% and the AC50 [1] was 7.31 µM [rising, partial curve].
In the case of CCCCNc1cnn(-c2ccccc2)c(=O)c1Cl, the cell number change is reported as 5.71%, the AC50 [2] is reported as 0.206 µM [rising, full curve, poor fit] and the AC50 [1] is reported as 4.11 µM [rising, single point].
With Cc1nc(Nc2ccccc2)c2oc3ccc(Cl)cc3c2n1 the cell number change was -6.94%.
CCOP(=O)(OCC)C(NC(C)=O)C(=O)c1ccccc1 (stereo not given) showed a cell number change of -34.4%.
CCn1cc(C(=O)N[C@@H](CCSC)C(=O)NCCCn2ccnc2)c(=O)c2cc3c(cc21)OCO3 gave a cell number change of -23.6%.
For Cc1ccnc2nc(C(=O)Nc3nc(-c4ccccn4)cs3)nn12, the AC50 [1] was 23.1 µM [falling, single point].
With CCn1c(CNc2ccc(C(=O)O)cc2)nc2ccccc21 the cell number change was -22.3%, the AC50 [2] was 1.64 µM [falling, full curve, poor fit] and the AC50 [1] was 16.4 µM [falling, partial curve].
With COC(=O)CNC(=O)c1ccccc1F the cell number change was -1.66% and the AC50 [1] was 0.92 µM [falling, full curve].
With O=C(O)c1cc(NCc2ccc(F)cc2)ccc1N1CCOCC1 the cell number change was -36.1%, the AC50 [2] was 1.84 µM [falling, full curve] and the AC50 [1] was 3.66 µM [falling, full curve].
In the case of O=S(=O)(Nc1ccc(N2CCCCC2)cc1)c1ccc(F)c(F)c1, the cell number change is reported as -32.3%, the AC50 [2] is reported as 29.1 µM [falling, single point] and the AC50 [1] is reported as 16.4 µM [falling, single point].
With CC(Sc1nnc(-c2ccncc2)n1C)C(=O)Nc1nccs1 (stereo not given) the cell number change was -10.5% and the AC50 [1] was 0.891 µM [rising, partial curve, poor fit].
For COc1cc(S(=O)(=O)Nc2ccccc2N2CCCCC2)ccc1NC(C)=O, the cell number change was 3.99% and the AC50 [1] was 18.4 µM [falling, single point].
With CCN(CC)C(=O)c1csc(Nc2ccc(C)cc2)n1 the cell number change was -32.7% and the AC50 [2] was 11.6 µM [falling, partial curve, poor fit].
For CCC(C)N(C(=O)COc1ccc(NC(C)=O)cc1)C1CCS(=O)(=O)C1 (stereo not given), the cell number change was 13.9%, the AC50 [2] was 6.51 µM [rising, single point] and the AC50 [1] was 6.51 µM [rising, single point].
With CCN(CC)S(=O)(=O)c1ccc2c(c1)N(CC(=O)NCc1ccccn1)C(=O)CO2 the cell number change was -19.9% and the AC50 [2] was 0.366 µM [falling, full curve, poor fit].
In the case of CC(=O)N1CCc2cc(S(=O)(=O)CCC(=O)N3CCc4ccccc4C3)ccc21, the cell number change is reported as 33.5% and the AC50 [2] is reported as 16.4 µM [rising, partial curve, poor fit].
In the case of COc1cccc(/C=N/n2c(C3CCCCC3)n[nH]c2=S)c1OC, the cell number change is reported as 132% and the AC50 [2] is reported as 29.1 µM [rising, single point].
With COc1cccc(/C=N/Nc2ccc(C(=O)O)cc2)c1O the cell number change was -22.9% and the AC50 [1] was 6.51 µM [falling, partial curve, poor fit].
In the case of COc1ccccc1CNC(=O)Cn1cc2c(n1)CCCC2, the cell number change is reported as 13.9% and the AC50 [1] is reported as 5.17 µM [falling, partial curve, poor fit].
In the case of O=C(C1CCCN(c2ncccn2)C1)N1CCc2ccccc21 (stereo not given), the cell number change is reported as -31.5%, the AC50 [2] is reported as 0.146 µM [falling, full curve, poor fit] and the AC50 [1] is reported as 0.13 µM [rising, full curve, poor fit].
In the case of COc1ccc(CN(C(=O)c2nsc(Cl)c2Cl)C(C(=O)NC2CCCCC2)c2ccc(OC)cc2)cc1 (stereo not given), the cell number change is reported as -33%, the AC50 [2] is reported as 18.4 µM [falling, single point] and the AC50 [1] is reported as 20.6 µM [falling, partial curve].
For COc1cc(CN2CCN(c3ccccc3F)CC2)cc(OC)c1O, the cell number change was -10.2% and the AC50 [1] was 23.1 µM [rising, single point].
For COc1ccc(C)cc1S(=O)(=O)N1CCCC(N2CCOCC2)C1 (stereo not given), the cell number change was 9.62% and the AC50 [1] was 29.1 µM [rising, single point].
For CC(CCc1ccccc1)NC(=O)COC(=O)c1ccc(S(C)(=O)=O)c([N+](=O)[O-])c1 (stereo not given), the cell number change was -32.6%, the AC50 [2] was 4.61 µM [falling, full curve, poor fit] and the AC50 [1] was 3.26 µM [falling, full curve].
With C=CCOc1ccccc1CN1CCC(C(=O)Nc2cccc(-c3ccn[nH]3)c2)CC1 the cell number change was 24.7% and the AC50 [1] was 18.4 µM [rising, partial curve].
For O=C(N/N=C/c1cc2c3c(c1O)CCCN3CCC2)c1ccccc1O, the cell number change was 4.18% and the AC50 [1] was 4.61 µM [rising, single point].
With O=C1OCCC1Sc1nc2cc(Cl)ccc2n1Cc1ccccc1 (stereo not given) the AC50 [1] was 29.1 µM [rising, single point].
For Cc1ccc(-c2noc(CN(C(=O)CCN3C(=O)c4ccccc4C3=O)C(C)C)n2)cc1, the cell number change was 175% and the AC50 [2] was 29.1 µM [rising, single point].
Work on CCn1c(COc2ccc(C)cc2)nnc1SCC(=O)C(C)(C)C yielded a cell number change of -9%.
With CCSc1ccc([C@@H]2[C@@H]3C(=O)N(C)C(=O)[C@@H]3[C@]3(C(=O)OC)CCCCN23)cc1 the cell number change was -10.8% and the AC50 [1] was 8.2 µM [falling, partial curve, poor fit].
Molecule CC1CCC(NC(=O)C2CCC(CNc3c(N4CCCCC4)c(=O)c3=O)CC2)CC1 (stereo not given) has a cell number change of -17%.
In the case of COc1cc(CNC(C)c2ccccc2)cc(Br)c1OCc1ccc(F)cc1 (stereo not given), the cell number change is reported as -11.4% and the AC50 [1] is reported as 29.1 µM [falling, single point].

Reference: PubChem BioAssay AID2685 (National Center for Advancing Translational Sciences (NCATS), 2010)
